# Measured values from the supplement of paper PMC8728848.
# This is one part of the list.
# Tests used:
# Experiment in all cases: glycan array binding signal (z-score within array); higher = stronger binding
# Settings in all cases: glycan notation: IUPAC condensed, linker removed
# Fuc(a1-2)Gal = molecular target: Fuc(a1-2)Gal
# Procedure, shortened: (§1)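 Glycan array data came from 3228 arrays in the Consortium for Functional Glycomics database, and only arrays with an available protein sequence were kept. Glycan names were put into IUPAC-condensed notation, and columns mapping to the same glycan were averaged. The binding signal is a within-array Z-score, averaged across arrays of one protein sequence run at different concentrations or buffers and across linkers. A negative Z-score can be read as non-binding.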
# Fuc(a1-2)Gal(b1-3)GalNAc = molecular target: Fuc(a1-2)Gal(b1-3)GalNAc
# Procedure, shortened: as §1
# [1] = molecular target: Fuc(a1-2)Gal(b1-3)GalNAc(a1-3)[Fuc(a1-2)]Gal(b1-4)Glc
# Procedure, shortened: as §1
# [2] = molecular target: Fuc(a1-2)Gal(b1-3)GalNAc(a1-3)[Fuc(a1-2)]Gal(b1-4)GlcNAc
# Procedure, shortened: as §1
# [3] = molecular target: Fuc(a1-2)Gal(b1-3)GalNAc(b1-3)Gal
# Procedure, shortened: as §1
# [4] = molecular target: Fuc(a1-2)Gal(b1-3)GalNAc(b1-3)Gal(a1-4)Gal(b1-4)Glc
# Procedure, shortened: as §1
# [5] = molecular target: Fuc(a1-2)Gal(b1-3)GalNAc(b1-4)[Neu5Ac(a2-3)]Gal(b1-4)Glc
# Procedure, shortened: as §1
# Fuc(a1-2)Gal(b1-3)GlcNAc = molecular target: Fuc(a1-2)Gal(b1-3)GlcNAc
# Procedure, shortened: as §1
# [6] = molecular target: Fuc(a1-2)Gal(b1-3)GlcNAc(b1-2)Man(a1-3)[Fuc(a1-2)Gal(b1-3)GlcNAc(b1-2)Man(a1-6)]Man(b1-4)GlcNAc(b1-4)GlcNAc
# Procedure, shortened: as §1
# [7] = molecular target: Fuc(a1-2)Gal(b1-3)GlcNAc(b1-2)Man(a1-3)[Fuc(a1-2)Gal(b1-3)GlcNAc(b1-2)Man(a1-6)]Man(b1-4)GlcNAc(b1-4)[Fuc(a1-6)]GlcNAc
# Procedure, shortened: as §1
# [8] = molecular target: Fuc(a1-2)Gal(b1-3)GlcNAc(b1-3)Gal(b1-4)Glc
# Procedure, shortened: as §1
# [9] = molecular target: Fuc(a1-2)Gal(b1-3)GlcNAc(b1-3)GalNAc
# Procedure, shortened: as §1
# [10] = molecular target: Fuc(a1-2)Gal(b1-3)GlcNAc(b1-3)[Fuc(a1-2)Gal(b1-3)GlcNAc(b1-6)]GalNAc
# Procedure, shortened: as §1
# [11] = molecular target: Fuc(a1-2)Gal(b1-3)GlcNAc(b1-3)[Gal(b1-4)GlcNAc(b1-6)]Gal(b1-4)Glc
# Procedure, shortened: as §1
# [12] = molecular target: Fuc(a1-2)Gal(b1-3)GlcNAc(b1-3)[Neu5Ac(a2-6)Gal(b1-4)GlcNAc(b1-6)]Gal(b1-4)Glc
# Procedure, shortened: as §1
# [13] = molecular target: Fuc(a1-2)Gal(b1-3)GlcNAc6S
# Procedure, shortened: as §1
# [14] = molecular target: Fuc(a1-2)Gal(b1-3)[Fuc(a1-4)]GlcNAc
# Procedure, shortened: as §1
# [15] = molecular target: Fuc(a1-2)Gal(b1-3)[Fuc(a1-4)]GlcNAc(b1-2)Man(a1-3)[Fuc(a1-2)Gal(b1-3)[Fuc(a1-4)]GlcNAc(b1-2)Man(a1-3)]Man(b1-4)GlcNAc(b1-4)GlcNAc
# Procedure, shortened: as §1
# [16] = molecular target: Fuc(a1-2)Gal(b1-3)[Fuc(a1-4)]GlcNAc(b1-2)Man(a1-3)[Fuc(a1-2)Gal(b1-3)[Fuc(a1-4)]GlcNAc(b1-2)Man(a1-6)]Man(b1-4)GlcNAc(b1-4)[Fuc(a1-6)]GlcNAc(b1-4)[Fuc(a1-6)]GlcNAc
# Procedure, shortened: as §1
# [17] = molecular target: Fuc(a1-2)Gal(b1-3)[Fuc(a1-4)]GlcNAc(b1-3)[Fuc(a1-3)[Gal(b1-4)]GlcNAc(b1-6)]Gal(b1-4)Glc
# Procedure, shortened: as §1
# [18] = molecular target: Fuc(a1-2)Gal(b1-3)[Fuc(a1-4)]GlcNAc(b1-3)[Gal(b1-4)GlcNAc(b1-6)]Gal(b1-4)Glc
# Procedure, shortened: as §1
# [19] = molecular target: Fuc(a1-2)Gal(b1-4)Fuc(a1-3)]GlcNAc(b1-2)Man(a1-3)[Fuc(a1-2)Gal(b1-4)[Fuc(a1-3)]GlcNAc(b1-2)Man(a1-6)]Man(b1-4)GlcNAc(b1-4)GlcNAc
# Procedure, shortened: as §1
# Fuc(a1-2)Gal(b1-4)Glc = molecular target: Fuc(a1-2)Gal(b1-4)Glc
# Procedure, shortened: as §1
# Fuc(a1-2)Gal(b1-4)Glc6S = molecular target: Fuc(a1-2)Gal(b1-4)Glc6S
# Procedure, shortened: as §1
# Fuc(a1-2)Gal(b1-4)GlcNAc = molecular target: Fuc(a1-2)Gal(b1-4)GlcNAc
# Procedure, shortened: as §1
# [20] = molecular target: Fuc(a1-2)Gal(b1-4)GlcNAc(b1-2)Man
# Procedure, shortened: as §1
# [21] = molecular target: Fuc(a1-2)Gal(b1-4)GlcNAc(b1-2)Man(a1-3)[Fuc(a1-2)Gal(b1-4)GlcNAc(b1-2)Man(a1-6)]Man(b1-4)GlcNAc(b1-4)GlcNAc
# Procedure, shortened: as §1
# [22] = molecular target: Fuc(a1-2)Gal(b1-4)GlcNAc(b1-2)Man(a1-3)[Fuc(a1-2)Gal(b1-4)GlcNAc(b1-2)Man(a1-6)]Man(b1-4)GlcNAc(b1-4)[Fuc(a1-6)]GlcNAc
# Procedure, shortened: as §1
# [23] = molecular target: Fuc(a1-2)Gal(b1-4)GlcNAc(b1-2)[Fuc(a1-2)Gal(b1-4)GlcNAc(b1-4)]Man(a1-3)[Fuc(a1-2)Gal(b1-4)GlcNAc(b1-2)Man(a1-6)]Man(b1-4)GlcNAc(b1-4)GlcNAc
# Procedure, shortened: as §1
# [24] = molecular target: Fuc(a1-2)Gal(b1-4)GlcNAc(b1-3)Gal(b1-4)GlcNAc
# Procedure, shortened: as §1
# [25] = molecular target: Fuc(a1-2)Gal(b1-4)GlcNAc(b1-3)Gal(b1-4)GlcNAc(b1-2)Man(a1-3)[Fuc(a1-2)Gal(b1-4)GlcNAc(b1-3)Gal(b1-4)GlcNAc(b1-2)Man(a1-6)]Man(b1-4)GlcNAc(b1-4)GlcNAc
# Procedure, shortened: as §1
# [26] = molecular target: Fuc(a1-2)Gal(b1-4)GlcNAc(b1-3)Gal(b1-4)GlcNAc(b1-3)Gal(b1-4)GlcNAc
# Procedure, shortened: as §1
# [27] = molecular target: Fuc(a1-2)Gal(b1-4)GlcNAc(b1-3)GalNAc
# Procedure, shortened: as §1
# [28] = molecular target: Fuc(a1-2)Gal(b1-4)GlcNAc(b1-3)[Fuc(a1-2)Gal(b1-4)GlcNAc(b1-6)]GalNAc
# Procedure, shortened: as §1
# [29] = molecular target: Fuc(a1-2)Gal(b1-4)GlcNAc(b1-3)[Fuc(a1-3)[Gal(b1-4)]GlcNAc(b1-6)]Gal(b1-4)Glc
# Procedure, shortened: as §1
# [30] = molecular target: Fuc(a1-2)Gal(b1-4)GlcNAc(b1-6)GalNAc
# Procedure, shortened: as §1
# [31] = molecular target: Fuc(a1-2)Gal(b1-4)GlcNAc6S
# Procedure, shortened: as §1
binder,measurement,setting,value
"FGF1 (Homo sapiens), P05230 (protein) MAEGEITTFTALTEKFNLPPGNYKKPKLLYSNGGHFLRILPDGTVDGTRDRSDQHIQLQLSAESVGEVYIKSTETGQYLAMTDGLLYGSQTPNEECLFLERLEENHYNTYISKHAEKNWFVGLKKNGSCKRGPRTHYGQAILFLPLPASSED",glycan array binding signal (z-score),Fuc(a1-2)Gal,-0.095
same,glycan array binding signal (z-score),Fuc(a1-2)Gal(b1-3)GalNAc,-0.596
same,glycan array binding signal (z-score),[1],-0.681
same,glycan array binding signal (z-score),[2],-0.671
same,glycan array binding signal (z-score),[3],-0.809
same,glycan array binding signal (z-score),[4],-0.003
same,glycan array binding signal (z-score),[5],-0.534
same,glycan array binding signal (z-score),Fuc(a1-2)Gal(b1-3)GlcNAc,-0.252
same,glycan array binding signal (z-score),[6],1.63
same,glycan array binding signal (z-score),[7],0.366
same,glycan array binding signal (z-score),[8],-0.425
same,glycan array binding signal (z-score),[9],-0.037
same,glycan array binding signal (z-score),[10],0.161
same,glycan array binding signal (z-score),[11],-0.844
same,glycan array binding signal (z-score),[12],-0.799
same,glycan array binding signal (z-score),[13],0.132
same,glycan array binding signal (z-score),[14],-0.779
same,glycan array binding signal (z-score),[15],2.84
same,glycan array binding signal (z-score),[16],0.036
same,glycan array binding signal (z-score),[17],-0.831
same,glycan array binding signal (z-score),[18],-0.819
same,glycan array binding signal (z-score),[19],1.55
same,glycan array binding signal (z-score),Fuc(a1-2)Gal(b1-4)Glc,-0.358
same,glycan array binding signal (z-score),Fuc(a1-2)Gal(b1-4)Glc6S,0.286
same,glycan array binding signal (z-score),Fuc(a1-2)Gal(b1-4)GlcNAc,-0.395
same,glycan array binding signal (z-score),[20],0.825
same,glycan array binding signal (z-score),[21],0.241
same,glycan array binding signal (z-score),[22],0.646
same,glycan array binding signal (z-score),[23],0.062
same,glycan array binding signal (z-score),[24],-0.767
same,glycan array binding signal (z-score),[25],0.234
same,glycan array binding signal (z-score),[26],0.099
same,glycan array binding signal (z-score),[27],1.33
same,glycan array binding signal (z-score),[28],1.34
same,glycan array binding signal (z-score),[29],-0.372
same,glycan array binding signal (z-score),[30],0.959
same,glycan array binding signal (z-score),[31],0.936

# Shown with bars between the fields: entries from further up.
binder | measurement | setting | value
FGF1 (Homo sapiens), P05230 (protein) MAEGEITTFTALTEKFNLPPGNYKKPKLLYSNGGHFLRILPDGTVDGTRDRSDQHIQLQLSAESVGEVYIKSTETGQYLAMTDGLLYGSQTPNEECLFLERLEENHYNTYISKHAEKNWFVGLKKNGSCKRGPRTHYGQAILFLPLPASSED | glycan array binding signal (z-score) | [1] | -0.681
same | glycan array binding signal (z-score) | [3] | -0.809
same | glycan array binding signal (z-score) | [8] | -0.425
same | glycan array binding signal (z-score) | [12] | -0.799
same | glycan array binding signal (z-score) | [14] | -0.779
same | glycan array binding signal (z-score) | [19] | 1.55
same | glycan array binding signal (z-score) | Fuc(a1-2)Gal(b1-4)Glc6S | 0.286
same | glycan array binding signal (z-score) | [27] | 1.33
same | glycan array binding signal (z-score) | [30] | 0.959
